# Screening data

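Vaccinia-infected cells with a two-color viral stage reporter; Venus fluorescence read on a plate reader; the cell line is not named here; timing not stated here.
The test concentration is not given here.
Percent change in Venus reporter signal; lower (more negative) values mean stronger inhibition of that viral stage.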

Values are in %.
The controls that fix the scale are not given here.
Common to all entries: measured here: Venus reporter, other viral stage.
Part of the compounds only, not a random draw; the main read-out is not listed here.

With C[C@H](CO)N1C[C@H](C)[C@@H](CN(C)Cc2ccc(-c3ccccc3)cc2)Oc2ccc(NC(=O)CCC(F)(F)F)cc2CC1=O the assay gave activity change (Venus) -39.26%. Result for CCCC#Cc1ccc2c(c1)O[C@@H](CN(C)C(=O)C1CCC1)[C@@H](C)CN([C@@H](C)CO)S2(=O)=O was activity change (Venus) -26.16%. CCCNC(=O)N1C[C@@H]2N[C@H](C1)C2c1ccc(-c2cccc(OC)c2)cc1 (some centres not stated) gave activity change (Venus) -93.05%. For COc1ccc(S(=O)(=O)Nc2ccc3c(c2)C(=O)N([C@H](C)CO)C[C@H](C)[C@@H](CN(C)S(=O)(=O)c2ccccc2)OCCCC[C@H](C)O3)cc1 the result was activity change (Venus) -37.51%.

With CO[C@@H]1CN(C)C(=O)c2ccc(NC(=O)c3cccc(Oc4ccccc4)c3)cc2OC[C@@H](C)NC[C@H]1C the assay gave activity change (Venus) -58.11%. C[C@@H]1CCCCO[C@@H](CN(C)Cc2ccc3c(c2)OCO3)[C@H](C)CN([C@@H](C)CO)C(=O)c2cc(NC(=O)Nc3ccccc3)ccc2O1 gave activity change (Venus) -34.61%. COc1ccc(CN(C)C[C@@H]2OCCCC[C@@H](C)Oc3ccc(NS(=O)(=O)c4cccs4)cc3C(=O)N([C@H](C)CO)C[C@H]2C)cc1 read activity change (Venus) -32.24%. Result for O=C(Nc1ccc(F)cc1)N1CC(=O)N2[C@H](CO)[C@@H](c3ccc(-c4ccc(F)cc4)cc3)[C@@H]2C1 was activity change (Venus) -31.79%.

CCC(=O)N1CC(=O)N2[C@H](CO)[C@H](c3ccc(C#CC4CCCC4)cc3)[C@H]2C1 read activity change (Venus) -78.88%. O=C(C[C@H]1CC[C@H]2[C@@H](COC[C@H](O)CN2C(=O)Nc2ccc(Cl)cc2)O1)NC1Cc2ccccc2C1 gave activity change (Venus) -23.04%. COc1ccc(CN(C)C[C@H]2Oc3ccc(NS(=O)(=O)c4ccc(Cl)cc4)cc3CC(=O)N([C@@H](C)CO)C[C@H]2C)cc1 gave activity change (Venus) -35.49%. O=C(c1ccccc1)N1Cc2ccccc2[C@H]2OC(c3ccc(OCCCO)cc3)=N[C@@]2(Cc2ccccc2)C1=O gave activity change (Venus) -31.75%.

With CC(C)CC#Cc1ccc2c(c1)O[C@H](CN(C)S(=O)(=O)c1cccc(F)c1)[C@H](C)CN([C@H](C)CO)S2(=O)=O the assay gave activity change (Venus) -44.19%. For N#Cc1cccc(-c2ccc([C@@H]3[C@H](CO)N4CCCCN(C(=O)Nc5ccccc5)C[C@@H]34)cc2)c1 the result was activity change (Venus) -40.43%. With C[C@@H]1CCCCO[C@@H](CN(C)S(=O)(=O)c2cccs2)[C@H](C)CN([C@H](C)CO)C(=O)c2cc(NC(=O)C3CCCCC3)ccc2O1 the assay gave activity change (Venus) -42.97%. C[C@H]1CN([C@@H](C)CO)C(=O)Cc2cc(NC(=O)Nc3ccc4c(c3)OCO4)ccc2O[C@H]1CN(C)Cc1ccc(Cl)c(Cl)c1 read activity change (Venus) -35.6%.

COc1cccc(-c2ccc([C@@H]3[C@H](CO)N4CCCCN(C(=O)c5ccc(F)cc5)C[C@@H]34)cc2)c1 gave activity change (Venus) -34.74%. C[C@@H]1CCCCO[C@@H](CN(C)C(=O)C2CCCCC2)[C@@H](C)CN([C@H](C)CO)C(=O)c2cc(NS(=O)(=O)c3ccc(F)cc3)ccc2O1 gave activity change (Venus) -50.92%. Result for O=C(C[C@H]1CC[C@H]2[C@@H](COC[C@@H](O)CN2C(=O)Nc2ccc(Cl)cc2)O1)NCC1CCCCC1 was activity change (Venus) -24.39%. C[C@H]1CN([C@@H](C)CO)C(=O)c2cccc(NC(=O)Nc3ccc(F)cc3)c2O[C@H]1CN(C)S(=O)(=O)c1ccc(F)cc1 gave activity change (Venus) -43.74%.

C[C@@H]1CN([C@H](C)CO)C(=O)c2cc(NC(=O)c3ccncc3)ccc2O[C@@H](C)CCCCO[C@H]1CN(C)S(=O)(=O)c1ccc(Cl)cc1 read activity change (Venus) -39.49%. For C[C@H]1CCCCO[C@H](CN(C)C)[C@@H](C)CN([C@@H](C)CO)C(=O)c2cc(NC(=O)Nc3ccc(C(F)(F)F)cc3)ccc2O1 the result was activity change (Venus) -47.78%.

The first 3 entries again:

compound,activity change (Venus) (%)
C[C@H](CO)N1C[C@H](C)[C@@H](CN(C)Cc2ccc(-c3ccccc3)cc2)Oc2ccc(NC(=O)CCC(F)(F)F)cc2CC1=O,-39.26
CCCC#Cc1ccc2c(c1)O[C@@H](CN(C)C(=O)C1CCC1)[C@@H](C)CN([C@@H](C)CO)S2(=O)=O,-26.16
CCCNC(=O)N1C[C@@H]2N[C@H](C1)C2c1ccc(-c2cccc(OC)c2)cc1 (some centres not stated),-93.05

Data taken from PubChem BioAssay AID1053133, deposited by Broad Institute (2014).